Source: PubChem BioAssay AID504467 (National Center for Advancing Translational Sciences (NCATS), 2011)
Out of some 330,000 compounds screened, about 7,700 (2.3%) were called active. The shares of active, inactive and inconclusive entries below differ from those in the screen. The call rests on the fitted dose curve; in most records, active means well fitted inhibition curve with a large enough effect; inconclusive means small, poorly fitted or top-dose-only effect, or effect the other way; inactive means flat fitted curve, though single readings scatter. Potencies beside an inconclusive call are fits to weak or partial responses and may not hold up.

Experiment: qHTS screen for small molecules that inhibit ELG1-dependent DNA repair in human embryonic kidney (HEK293T) cells expressing luciferase-tagged ELG1; further: nearly all actives have a fitted effect of over 55% in size
Details: HEK293T ELG1-luciferase reporter, luminescence, 16 h, DNA damage induced by 5-fluorouridine; series mostly up to 46.1 µM
In short: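 Quantitative HTS, concentration-response format. 2,000 cells/well co-treated with 5-fluorouridine and compound, 16 hr in 5% CO2 at 37 °C; ONE-Glo luminescence read after 30 min.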
Potency means the concentration at half of the fitted maximal effect.

Structure (SMILES) | Potency
Cc1ccc(C)n1-c1ccc(N2CCOCC2)c([N+](=O)[O-])c1 | inconclusive: 29.1 µM [activator, single point]
C#CCOCCOCCOCCNc1nc(N2CCN(C(=O)C([C@@H](C)O)n3cc([C@@H](N)CCCCN)nn3)CC2)nc(N2CCN(C(=O)C([C@@H](C)O)n3cc([C@@H](N)CCCCN)nn3)CC2)n1 (some centres not stated) | inactive
Cc1ccc(S(=O)(=O)c2nc(S(=O)(=O)c3ccccc3)sc2N2CCN(C)CC2)cc1 | inconclusive: 1.64 µM [inhibitor, partial curve, poor fit]
O=C(c1cccnc1)N1CCN(Cc2cccc(Br)c2)CC1 | inconclusive: 29.1 µM [activator, single point]
Cc1ncc(C[n+]2csc(CCOC(=O)CC34CC5CC(CC(C5)C3)C4)c2C)c(N)n1 | inactive
O=C(/C=C/c1ccc(S(=O)(=O)N2CCOCC2)cc1)NC(=S)NCCCn1ccnc1 | inconclusive: 23.1 µM [inhibitor, single point]
CCOC(=O)c1cc2c(=O)c3cc(C)ccc3oc2nc1C | inconclusive: 3.26 µM [activator, full curve]
CCn1c(-c2ccc(N(C)C)cc2)nc2ccccc21 | inconclusive: 1.26 µM [activator, full curve]
COc1ccc(-c2nnc3ccc(SC(C(C)=O)C(C)=O)nn23)cc1OC | inconclusive: 29.1 µM [inhibitor, single point]
CCn1c(=O)cc(OCC(=O)NCCCN2CCC(C)CC2)c2ccccc21 | inconclusive: 20.6 µM [activator, partial curve]
Cc1ccc(NC(=O)COC(=O)/C=C/c2c(C)nn(-c3ccc(F)cc3)c2Cl)cc1F | inactive
CNC(=O)c1[nH]cnc1C(=O)Nc1ccccc1OC | inconclusive: 20.6 µM [activator, single point]
O=S(=O)(c1ccc2c(c1)OCCO2)N1CCN(c2cccc(Cl)c2)CC1 | inconclusive: 32.6 µM [inhibitor, partial curve, poor fit]
CCOP(=O)(OCC)C(Nc1ccc(F)cc1)c1ccccc1 (configuration not stated) | inactive
CC(=O)c1c(-c2ccc(C)cc2)nc2c3ccccc3ccn12 | inconclusive: 29.1 µM [inhibitor, single point]
O=C(c1ccc(OCC2CCCO2)cc1)N1CCc2ccccc2C1 (configuration not stated) | inconclusive: 23.1 µM [activator, single point]
COC(=O)c1ccccc1NC(=O)CSc1nc(Nc2ccccc2)nc(N2CCOCC2)n1 | inconclusive: 20.6 µM [inhibitor, partial curve]
COC(=O)c1cccc(NC(=O)NC23CC4CC(CC(C4)C2)C3)c1 | inconclusive: 4.11 µM [activator, full curve]
Cn1c(CC(=O)Nc2ccccc2F)nnc1SCC(=O)Nc1ccccc1Br | inconclusive: 3.26 µM [activator, partial curve, poor fit]
CC(=O)c1ccc(N2CC(C)(C)C2=O)cc1 | inconclusive: 29.1 µM [activator, partial curve, poor fit]
Cc1nn(-c2ccccc2)c2nc(-c3ccncc3)cc(C(=O)NCc3ccco3)c12 | inconclusive: 12.6 µM [inhibitor, partial curve, poor fit]
COc1cccc(NCCC(=O)c2cccc([N+](=O)[O-])c2)c1 | inconclusive: 16.4 µM [activator, partial curve]
O=C(Nc1cccc2ccccc12)NC1CCCCC1O (configuration not stated) | inactive

Some of the entries so far, as tab-separated lines.
Structure (SMILES)	Potency
Cc1ccc(C)n1-c1ccc(N2CCOCC2)c([N+](=O)[O-])c1	inconclusive: 29.1 µM [activator, single point]
C#CCOCCOCCOCCNc1nc(N2CCN(C(=O)C([C@@H](C)O)n3cc([C@@H](N)CCCCN)nn3)CC2)nc(N2CCN(C(=O)C([C@@H](C)O)n3cc([C@@H](N)CCCCN)nn3)CC2)n1 (some centres not stated)	inactive
Cc1ccc(S(=O)(=O)c2nc(S(=O)(=O)c3ccccc3)sc2N2CCN(C)CC2)cc1	inconclusive: 1.64 µM [inhibitor, partial curve, poor fit]
O=C(c1cccnc1)N1CCN(Cc2cccc(Br)c2)CC1	inconclusive: 29.1 µM [activator, single point]
Cc1ncc(C[n+]2csc(CCOC(=O)CC34CC5CC(CC(C5)C3)C4)c2C)c(N)n1	inactive

(next part)

Structure (SMILES) | Potency
Cc1sc(NC(=O)c2ccco2)nc1-c1ccc2c(c1)CC(C)N2C(=O)C1CC1 (configuration not stated) | active: 14.6 µM
CCOc1ccc(NC(=O)c2ccccn2)cc1 | inconclusive: 0.651 µM [activator, partial curve, poor fit]
COc1cccc(-c2nnc(SC(C(=O)c3c[nH]c4ccccc34)c3ccccc3)n2C)c1 (configuration not stated) | inconclusive: 18.4 µM [inhibitor, single point]
O=C1C=C(Nc2cccc(Cl)c2)CC(c2ccco2)C1 (configuration not stated) | inconclusive: 25.9 µM [inhibitor, single point]
Cc1c(O)c2cccnc2[nH]c1=O | inactive
C/C(=N\NC1=NCCN1)c1ccc(Cl)cc1 | inactive
O=C(c1cc(COc2ccc(F)c(F)c2)on1)N1CCSCC1 | inconclusive: 20.6 µM [activator, partial curve]
CCCCC(=O)NCc1ccc2c(c1)cc(C)n2C | inactive
CCN(CC)CCCNc1ccc(-c2nnc(-c3ccc(OCC(C)C)cc3)o2)cn1 | inactive
COc1ccc(CCN=C(N)NS(=O)(=O)c2ccc(OC)cc2)cc1 | inconclusive: 32.6 µM [inhibitor, single point]
Clc1cc2c(cc1/C=N/Nc1nc(N3CCOCC3)nc(N3CCOCC3)n1)OCO2 | inconclusive: 29.1 µM [inhibitor, single point]
COc1ccc(CCN(C)c2ccc(C(N)=O)cc2[N+](=O)[O-])cc1OC | inconclusive: 16.4 µM [inhibitor, partial curve, poor fit]
CC(=O)c1cccc(NC(=O)C(=O)c2cn(CC(=O)N3CCCCC3)c3ccccc23)c1 | inconclusive: 20.6 µM [inhibitor, single point]
CC(C)(C)OC(=O)[C@H]1[C@H](c2ccc([N+](=O)[O-])cc2)C2(C(=O)c3ccccc3C2=O)C2c3ccccc3C=NN21 (some centres not stated) | inactive
O=C(Nc1ccc(N2CCN(C(=O)c3ccc(Cl)cc3)CC2)cc1)c1ccc2c(c1)OCCO2 | active: 4.11 µM
CCn1cc(/C=N/NC(=O)c2ccc(C#N)cc2F)c2ccccc21 | inconclusive: 18.4 µM [inhibitor, single point]
CC1(C)C(c2cccs2)=[N+]([O-])C2(CCCCC2=O)N1O (configuration not stated) | inconclusive: 29.1 µM [inhibitor, single point]
COc1ccc(-c2cc(-c3ccccc3)nc(Cl)n2)cc1OC | active: 18.3 µM
O=C(CSc1nc2ccccc2s1)NCCOc1ccc(Cl)cc1 | inactive
CC(C)(C)[C@@H]1COC(=O)[C@H](Cc2ccc(F)cc2)C/C=C\C[C@H](CC(=O)N(CCO)Cc2ccccc2)C(=O)N1 | active: 20.6 µM
COc1ccc(CC2(CO)CCN(S(=O)(=O)c3c(C)nn(C)c3Cl)CC2)cc1 | inconclusive: 20.6 µM [inhibitor, single point]
O=C(CSc1nnnn1C1CCCC1)c1ccc2c(c1)OCCO2 | inconclusive: 5.17 µM [activator, partial curve]
O=S(=O)(c1cccc2cnccc12)N1CCNCC1 | inconclusive: 10 µM [inhibitor, partial curve, poor fit]

Structure (SMILES) | Potency
COc1ccc(CCNC(=O)C(=O)Nc2ccc3nc4n(c(=O)c3c2)CCCCC4)cc1OC | active: 20.6 µM
CON(C)c1nc(OCCNC(=O)OCc2ccc(Cl)cc2C)nc(N(C)C)n1 | inconclusive: 16.4 µM [inhibitor, single point]
O=C(Nc1ccccc1Cl)c1ccc2c(c1)N(Cc1ccc(F)cc1)C(=O)CS2=O (configuration not stated) | inactive
COc1cc(/C=N/NC(=S)Nc2cccnc2)cc(OC)c1OC | inconclusive: 11.6 µM [inhibitor, partial curve, poor fit]
CC/C(CC(=O)C(F)(F)F)=N\NC(=O)/C(C#N)=C/N(C)C | inactive
CCOc1cc(C(=O)NC(=S)Nc2nc(C)cc(C)n2)cc(OCC)c1OCC | inconclusive: 18.3 µM [inhibitor, single point]
COc1ccc(-c2nc(-c3ccc(Br)o3)no2)cc1 | inconclusive: 1.84 µM [activator, full curve]
COc1ccc(C(=O)NCc2cccnc2)cc1S(=O)(=O)N1CCCc2ccccc21 | inactive
O=C(CCn1c2c(c3ccccc31)CCCC2)NNC(=O)c1ccc([N+](=O)[O-])cc1 | inconclusive: 18.4 µM [inhibitor, partial curve, poor fit]
C/C(=N\NC(=O)c1c(Cl)c(C)nn1C)c1cccc(NC(=O)c2cccc(F)c2)c1 | inconclusive: 14.6 µM [inhibitor, partial curve]
CC(C)C(=O)NC(=S)Nc1sc2c(c1C(N)=O)CCCC2 | inconclusive: 20.6 µM [activator, partial curve]
Nc1nc(SCC(=O)Nc2ccccc2)nc2nc3c(cc12)CCCC3 | inconclusive: 18.4 µM [inhibitor, single point]
COc1ccc(OC(C)C(=O)N2CCc3ccccc3C2)cc1 (configuration not stated) | inactive
C=CCNC(=S)N/N=C/c1ccccc1OCCOc1ccccc1 | inactive
COc1cc(C2Nc3ccccc3C(=O)N2c2ccccc2)ccc1O (configuration not stated) | inconclusive: 7.31 µM [activator, partial curve]
O=C(N/N=C/c1ccccc1)c1[nH]ncc1Br | inconclusive: 13 µM [activator, partial curve]
COc1ccc(OCc2cc(C(=O)N3CCCC(O)C3)no2)c2ccccc12 (configuration not stated) | inconclusive: 8.2 µM [activator, partial curve]
CN(Cc1ccc(Br)cc1)C(=O)CCN1C(=O)c2cccc([N+](=O)[O-])c2C1=O | inconclusive: 1.16 µM [inhibitor, single point]
COc1ccc(Nc2nc(NCc3ccco3)nc(N/N=C/c3ccccc3)n2)cc1 | active: 2.59 µM
CC(C)[C@H](NC(=O)N1c2ccccc2NC(=O)[C@@H]1C(C)C)C(=O)N1CCC[C@H]1C(=O)O | inconclusive: 0.0046 µM [activator, full curve, poor fit]
O=C(Cc1ccc(-n2c(=O)[nH]c3ccsc3c2=O)cc1)N1CCN(c2ccc(Cl)cc2)CC1 | inconclusive: 29.1 µM [inhibitor, single point]
